Data: PubChem BioAssay AID1347423 (Functional Genomics Laboratory (NCATS/FGL), 2020)
Hit rate of the full screen: of about 52,000 sequences, about 210 (0.4%) were called active.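 How the source made its calls: active means gene whose silencing raises cell survival under the drug, median off-target-corrected z-score across its silencing RNAs 2 or more; inactive means the rest.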 Some of the results follow.

Experiment: Resistance to Poly (ADP-Ribose) Polymerase inhibitor: Gene Identification via Genome-wide siRNA Screen
Conditions: mouse BRCA2 R2336H ES cells, olaparib, CellTiter-Glo viability; active compounds read high
Outline: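 Mouse BRCA2 R2336H ES cells were reverse-transfected with siRNA (20 nM final), treated at 48 h with 500 nM olaparib, and read by CellTiter-Glo after 72 h. Scores: MAD-based z per siRNA, median per gene, seed off-target correction.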

Question: Which z-score does the source give for CCAUCCACAGCAGUCCCAATT against Olfr530 here?
Answer: inactive: -1.44

Question: With GGAAUUCGAGAAGUAACUATT against Dbt as the sequence, how does the z-score read?
Answer: inactive: -0.289

Question: Which z-score does the source give for GGCGGUUCAAUAUUAAGCUTT against Wbscr14 here?
Answer: inactive: 2.05

Question: For GGGAUUCCCAUCAUUGUGGTT against Gmpr, which z-score is on record?
Answer: inactive: -0.678

Question: With CGUGUGCCACUAAUUGGCUTT against Urod as the sequence, how does the z-score read?
Answer: inactive: 1.14

Question: Which z-score does the source give for GGCUUGACAACCUCAUGUCTT against Rnf41 here?
Answer: inactive: -0.509

Question: With GGACACAUGGAAGAGGAUUTT against Rnf139 as the sequence, how does the z-score read?
Answer: inactive: 1.61

Question: With “CGUGAAUCCUAACAUGAGATT against 1810029G24Rik” as the sequence, how does the z-score read?
Answer: inactive: 0.398

Question: Which z-score does the source give for GGCAAAAUAAAGGAUAGGATT against Prpf4b here?
Answer: inactive: -0.432

Question: For “GGCUUUGGCAUGAUUGGCCTT against 1110039B18Rik”, which z-score is on record?
Answer: inactive: -0.728

Question: Which z-score does the source give for CGAUGUGACUAUUUGUUGATT against Snx11 here?
Answer: inactive: 0.316

Question: For CCUAAACCUUUAAAUCAGUTT against Gsdm1, which z-score is on record?
Answer: inactive: 1.39

Question: With GGACGACAGGAACUGGCAATT against Fbxo9 as the sequence, how does the z-score read?
Answer: inactive: -2.21

Question: Which z-score does the source give for GGUUUUGCACAGCAUUGGUTT against Efna1 here?
Answer: inactive: -1.31

Question: Which z-score does the source give for “GCAUACUUGUUUUAGCUAATT against 1110057H19Rik” here?
Answer: inactive: 0.425

Question: For GGGUGAUGACGCAAUAUGCTT against Kcnma1, which z-score is on record?
Answer: inactive: 0.754

Question: Which z-score does the source give for “AGACCACAGUUAGCAGUGGTT against 6030457N17Rik” here?
Answer: inactive: 1.31

Question: With GGAGUUCGACAUUAGCGGATT against Ehf as the sequence, how does the z-score read?
Answer: inactive: 0.231

Question: Which z-score does the source give for “GGAUUCAUAACAAAACGAGTT against 2810417M05Rik” here?
Answer: inactive: 0.672

Question: For GCCAAUAUGCUUAAUUAGATT against Il7, which z-score is on record?
Answer: inactive: 2.05

Question: Which z-score does the source give for “GCAAGCCAACGUGUCGGAATT against 1500019O16Rik” here?
Answer: inactive: 1.6

Question: For GGAAAUGAGUAGUAGUAGUTT against Svp2, which z-score is on record?
Answer: inactive: 0.0822

Question: Which z-score does the source give for GGAAAUCUGAUGUGGAAAGTT against Crsp2 here?
Answer: inactive: -0.889

Question: Which z-score does the source give for GGCACAAAGCGUAUACUGATT against Ugt2a2 here?
Answer: inactive: 0.631

Question: Which z-score does the source give for GCCCAACUGCUACCUGUUUTT against Mansc1 here?
Answer: inactive: -1.24

Question: With GGAAGAUUUGGAAAAUGGATT against Zcsl2 as the sequence, how does the z-score read?
Answer: inactive: -1.47

Question: Which z-score does the source give for GCCUCAACAUGGAAUGUCGTT against Ppard here?
Answer: inactive: -1.73

Question: For GGAUACAGCAGUACAAAUGTT against Ces2, which z-score is on record?
Answer: inactive: -0.472

Question: Which z-score does the source give for GCCCAUGACCAGUUCAAGUTT against Actn4 here?
Answer: inactive: 0.000166

Question: For GCAUGCAGUCAAGUCAACGTT against Pnoc, which z-score is on record?
Answer: inactive: 0.292

Question: With CGUGAUCGGGUACUGAUGUTT against Bscl2 as the sequence, how does the z-score read?
Answer: inactive: -1.18

Question: For “CCAAAUUAACAGGGCUUUGTT against 9630046K23Rik”, which z-score is on record?
Answer: inactive: -0.667

Question: With GCGAUUUAUUGCCAAGCCCTT against Lass5 as the sequence, how does the z-score read?
Answer: inactive: 0.676

Question: With GGACAUUAGGGAAGUGCCUTT against Olfr281 as the sequence, how does the z-score read?
Answer: inactive: -1.16

Question: For “GGAGAAAUUCUAUGGUAUUTT against 5031434C07Rik”, which z-score is on record?
Answer: inactive: 0.537

Question: Which z-score does the source give for CGUUGAUCCUUUUCAACAUTT against Olfr881 here?
Answer: inactive: 0.935

Question: With GGACUCUGAAGAGGAAAAGTT against Aprin as the sequence, how does the z-score read?
Answer: inactive: -2.99

Question: With GGUGUUUCAGAGGCCAAACTT against Stfa1 as the sequence, how does the z-score read?
Answer: inactive: 1.01

Question: Which z-score does the source give for GCCAUCACAAGUGAGUUCATT against Olfr951 here?
Answer: inactive: -1.27

Question: Which z-score does the source give for CCAUACAUUGGAUCAAAGCTT against Rae1 here?
Answer: inactive: 1.13

Question: Which z-score does the source give for GGUUUUCAAUUUUACACACTT against Dtnbp1 here?
Answer: inactive: 0.232

Question: For “GCGGCAAUAUAAGCUACGUTT against 1600015H20Rik”, which z-score is on record?
Answer: inactive: 0.429

Question: With CUUUUCAAGCAGGAGAGUUTT against Mterf as the sequence, how does the z-score read?
Answer: inactive: -0.52

Question: With GGUUGCACUACUAAGUGUCTT against Rdhe2 as the sequence, how does the z-score read?
Answer: inactive: 0.388

Question: Which z-score does the source give for CCUGCAUCGUACGCUACUUTT against Rnf110 here?
Answer: inactive: 1.09

Question: Which z-score does the source give for GAACAAGGAGAAAUUCUUGTT against Ms4a4c here?
Answer: inactive: 1.38

Question: Which z-score does the source give for GGAGAAGAUGAUGUACUGUTT against Bub1b here?
Answer: inactive: 0.588

Question: For “GGAAGAUGGCACUAUUCUCTT against 4930444A02Rik”, which z-score is on record?
Answer: inactive: -0.025

Question: For GGCACAUUCAACAACAUUUTT against Zfp592, which z-score is on record?
Answer: inactive: 0.739

Question: With GGUGAACACUCUUUUGGAATT against Rab11fip2 as the sequence, how does the z-score read?
Answer: inactive: -0.0884

Question: Which z-score does the source give for “GGAAGAAGAACCAAAGCCCTT against 1110005A23Rik” here?
Answer: inactive: -0.851

Question: With GGCUCCAUCAAGAAAAGUUTT against Usp21 as the sequence, how does the z-score read?
Answer: inactive: -0.958

Question: For GGCGUGUGCAAGAAAAUCGTT against Cacng3, which z-score is on record?
Answer: inactive: 0.00466

Question: Which z-score does the source give for “GGAGUUCCAGAAGCUUCUATT against A230074B11Rik” here?
Answer: inactive: -1.3

Question: With CGCUCAAACCAAAGUUCCUTT against Lin28b as the sequence, how does the z-score read?
Answer: inactive: 0.427

Question: Which z-score does the source give for GGAGAUGGACUCACUGAUGTT against Zfp31 here?
Answer: inactive: 2

Question: For GCUGAGUCCAUGUCUGUUGTT against Coro2a, which z-score is on record?
Answer: inactive: 0.0688

Question: With CCAGAUGCUCGAUUCAGUGTT against Crim1 as the sequence, how does the z-score read?
Answer: inactive: -0.403

Question: With “GCCUGUGUAUUCUCGCUAUTT against 2810468K17Rik” as the sequence, how does the z-score read?
Answer: inactive: 1.63

Question: For GCGAUAUGCAGAGAAGCGGTT against Prpf8, which z-score is on record?
Answer: inactive: -2.54

Question: For “GGUCAUACAUUUGUCAUCATT against E130319B15Rik”, which z-score is on record?
Answer: inactive: -1.72

Question: Which z-score does the source give for CGCAAUUUUGAACAUGUGUTT against Kctd7 here?
Answer: inactive: -0.28

Question: For GGAUGACCAGAACUUCAGUTT against AI894139, which z-score is on record?
Answer: inactive: 0.902

Question: With GGGACUUUGAGAAAAUCUUTT against Scgn as the sequence, how does the z-score read?
Answer: inactive: -1.33

Question: Which z-score does the source give for GGUGGUUACCAUAGCUGGUTT against Arid2 here?
Answer: inactive: -1.52

Question: Which z-score does the source give for GGCUACUGGGCUUGUUGAATT against Cyp2d22 here?
Answer: inactive: -0.678

Question: For GCAUUUCGUACAGCAGAAATT against Pip5k2c, which z-score is on record?
Answer: inactive: -0.0557

Question: With “CGAGGAGAAUUUGUAAUGATT against 4930469P12Rik” as the sequence, how does the z-score read?
Answer: inactive: -0.364

Question: For GGAAGAGAGAGAGCUUAUUTT against Abca6, which z-score is on record?
Answer: inactive: 0.368

Question: For CCUUUGAUCAAUUCUGAGUTT against Glb1, which z-score is on record?
Answer: inactive: 1.13

Question: With “GGAAUCUUCUGAAUUGCCUTT against 2510004L20Rik” as the sequence, how does the z-score read?
Answer: inactive: 0.364

Question: Which z-score does the source give for GGAAGUUACUGUCGAGUACTT against Olfr115 here?
Answer: inactive: -1.27

Question: With GGAAUCUGGGCAAAUCUGGTT against Kcnab2 as the sequence, how does the z-score read?
Answer: inactive: -0.911

Question: For GCUAAUCCGGGCAAAAUCGTT against Gbp4, which z-score is on record?
Answer: inactive: -1.61

Question: With GGGACCUUAGAAGAUUGGGTT against Sart3 as the sequence, how does the z-score read?
Answer: inactive: 1.34

Question: For GCCUCAGAAAAACAUCUAUTT against BC008103, which z-score is on record?
Answer: inactive: 2.16

Question: For GGAAUCCUGCCAUGAUGCATT against Ubqln2, which z-score is on record?
Answer: inactive: -2.34

Question: For GGAGAUUGGAUCCCGAAACTT against Pxn, which z-score is on record?
Answer: inactive: 0.471

Question: With GGGUUUGCACUAGUUUAUUTT against Rap1a as the sequence, how does the z-score read?
Answer: inactive: 0.992

Question: With GGAAAAGAUUGGUGAAGGUTT against Gjb5 as the sequence, how does the z-score read?
Answer: inactive: -0.272

Question: For “CCCAGCUCUUAUGUUUACCTT against 1810038H16Rik”, which z-score is on record?
Answer: inactive: 1.36

Question: With GGAUCUGGAUUAGAUAGAUTT against Wnt3 as the sequence, how does the z-score read?
Answer: inactive: -0.798

Question: For CCAUACUGAACGCGCUUCUTT against Klhl5, which z-score is on record?
Answer: inactive: 0.297

Question: For “UUCCAGAAAAGAAGUGCACTT against 9230102D03Rik”, which z-score is on record?
Answer: inactive: 0.398

Question: Which z-score does the source give for GUAGUAACUCCUACAUUGATT against Olfr133 here?
Answer: inactive: 0.535

Question: For GCAUGAGGCUUUAUUUGACTT against Wwp2, which z-score is on record?
Answer: inactive: 0.482

Question: For GGUACAAUGGCACUGUCACTT against Chrna5, which z-score is on record?
Answer: inactive: 1.8

Question: With GGUCAAAGUCAAAGUUUUGTT against Aim1 as the sequence, how does the z-score read?
Answer: inactive: -0.0621

Question: Which z-score does the source give for CCAAGCCUAAUAAAAUUCCTT against Lisch7 here?
Answer: inactive: -0.274

Question: With “GGAAAUGCUUCUGAGCUAGTT against 5830417C01Rik” as the sequence, how does the z-score read?
Answer: inactive: 0.677

Question: For CCUUAGGAUUUGAACGCGUTT against Cutc, which z-score is on record?
Answer: inactive: 0.217

Question: With “GCAACAAUAUUGCUCUAGATT against A830023L05” as the sequence, how does the z-score read?
Answer: inactive: 0.95

Question: Which z-score does the source give for GGCUGCACAUCUGAGUACCTT against Itgb2l here?
Answer: inactive: 0.216

Question: Which z-score does the source give for CCUACUUGCAGAUUGUUUUTT against Rapgef6 here?
Answer: inactive: 0.784

Question: With GGCUGUCCACCGUAUGUAATT against Xab1 as the sequence, how does the z-score read?
Answer: inactive: 0.657

Question: For GGAAUCCUCACCAGCUUAATT against Rga, which z-score is on record?
Answer: inactive: 0.58

Question: For GGUUUGAGAAAUGACUUAATT against Narg1, which z-score is on record?
Answer: inactive: 0.936

Question: With GCGAUGCACUGUGUAAACUTT against Ccr6 as the sequence, how does the z-score read?
Answer: inactive: 0.884

Question: Which z-score does the source give for “GGUUAGCUGAAAGUUGAGGTT against D6Ertd538e” here?
Answer: inactive: 0.975

Question: With GGACUUGUCUUUGACACGCTT against Nt5c2 as the sequence, how does the z-score read?
Answer: inactive: 2.18

Question: Which z-score does the source give for “CCUGUCAAUGCAAGAAUGGTT against B230343H07Rik” here?
Answer: inactive: 0.082

Question: Which z-score does the source give for “CGAGAUCACAGACCAAUUGTT against 9430059P22Rik” here?
Answer: inactive: 0.262

Question: With “GGCCUGUUUUGUACUUUUATT against 2010003I19Rik” as the sequence, how does the z-score read?
Answer: inactive: -0.919

Question: Which z-score does the source give for CCGCUUUUGGAACUAUGAGTT against Stard3nl here?
Answer: inactive: -0.403
